Consider two substances from paper PMC8895740.

The chains behind the UniProt entries cited, without tags or fusion partners. Residues count along the entry.
UniProt Q9BYB0: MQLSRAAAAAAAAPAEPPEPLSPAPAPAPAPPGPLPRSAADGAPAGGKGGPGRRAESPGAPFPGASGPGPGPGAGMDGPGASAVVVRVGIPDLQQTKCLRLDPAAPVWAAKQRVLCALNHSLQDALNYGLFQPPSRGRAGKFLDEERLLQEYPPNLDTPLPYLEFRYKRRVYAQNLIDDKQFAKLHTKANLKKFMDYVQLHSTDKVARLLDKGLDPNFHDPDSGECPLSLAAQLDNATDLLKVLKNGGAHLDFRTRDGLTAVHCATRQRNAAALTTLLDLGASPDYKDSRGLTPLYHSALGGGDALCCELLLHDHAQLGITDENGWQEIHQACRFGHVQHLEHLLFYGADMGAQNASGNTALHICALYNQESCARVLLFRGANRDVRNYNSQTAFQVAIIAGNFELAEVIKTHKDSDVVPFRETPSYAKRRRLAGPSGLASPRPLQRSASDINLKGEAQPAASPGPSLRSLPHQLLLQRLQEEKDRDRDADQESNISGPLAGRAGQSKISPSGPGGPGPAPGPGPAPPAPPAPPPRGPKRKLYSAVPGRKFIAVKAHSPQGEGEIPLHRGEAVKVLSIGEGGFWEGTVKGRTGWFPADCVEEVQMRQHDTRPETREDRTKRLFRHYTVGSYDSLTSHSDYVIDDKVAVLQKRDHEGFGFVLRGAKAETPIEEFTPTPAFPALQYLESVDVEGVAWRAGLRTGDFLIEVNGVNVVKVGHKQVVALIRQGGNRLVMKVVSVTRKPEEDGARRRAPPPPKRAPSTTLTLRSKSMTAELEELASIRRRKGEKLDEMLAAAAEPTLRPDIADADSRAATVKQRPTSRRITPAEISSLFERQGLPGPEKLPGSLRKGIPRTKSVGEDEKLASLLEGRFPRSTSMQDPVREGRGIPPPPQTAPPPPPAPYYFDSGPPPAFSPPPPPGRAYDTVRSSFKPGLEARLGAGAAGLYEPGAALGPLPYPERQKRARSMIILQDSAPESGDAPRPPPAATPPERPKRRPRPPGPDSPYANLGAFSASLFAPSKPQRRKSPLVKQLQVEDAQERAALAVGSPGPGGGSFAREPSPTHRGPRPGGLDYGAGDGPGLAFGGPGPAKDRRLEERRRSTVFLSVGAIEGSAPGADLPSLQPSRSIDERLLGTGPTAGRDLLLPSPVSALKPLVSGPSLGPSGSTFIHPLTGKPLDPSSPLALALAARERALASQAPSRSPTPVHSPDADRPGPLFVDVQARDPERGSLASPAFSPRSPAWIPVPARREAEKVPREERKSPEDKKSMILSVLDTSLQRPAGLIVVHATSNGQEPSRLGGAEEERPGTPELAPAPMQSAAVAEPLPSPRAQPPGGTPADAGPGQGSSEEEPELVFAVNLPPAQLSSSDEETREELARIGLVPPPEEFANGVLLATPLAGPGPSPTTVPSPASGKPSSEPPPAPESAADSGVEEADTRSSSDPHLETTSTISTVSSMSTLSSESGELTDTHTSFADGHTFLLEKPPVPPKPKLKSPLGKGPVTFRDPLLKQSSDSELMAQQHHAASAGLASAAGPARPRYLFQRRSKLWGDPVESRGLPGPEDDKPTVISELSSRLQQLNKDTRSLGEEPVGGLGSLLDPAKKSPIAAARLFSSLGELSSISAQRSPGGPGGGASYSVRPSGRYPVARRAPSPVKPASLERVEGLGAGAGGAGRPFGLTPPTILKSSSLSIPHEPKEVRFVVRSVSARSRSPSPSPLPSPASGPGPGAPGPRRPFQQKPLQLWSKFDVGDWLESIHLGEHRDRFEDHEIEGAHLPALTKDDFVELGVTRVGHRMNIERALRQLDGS
UniProt Q9NZ94, residues 38-848: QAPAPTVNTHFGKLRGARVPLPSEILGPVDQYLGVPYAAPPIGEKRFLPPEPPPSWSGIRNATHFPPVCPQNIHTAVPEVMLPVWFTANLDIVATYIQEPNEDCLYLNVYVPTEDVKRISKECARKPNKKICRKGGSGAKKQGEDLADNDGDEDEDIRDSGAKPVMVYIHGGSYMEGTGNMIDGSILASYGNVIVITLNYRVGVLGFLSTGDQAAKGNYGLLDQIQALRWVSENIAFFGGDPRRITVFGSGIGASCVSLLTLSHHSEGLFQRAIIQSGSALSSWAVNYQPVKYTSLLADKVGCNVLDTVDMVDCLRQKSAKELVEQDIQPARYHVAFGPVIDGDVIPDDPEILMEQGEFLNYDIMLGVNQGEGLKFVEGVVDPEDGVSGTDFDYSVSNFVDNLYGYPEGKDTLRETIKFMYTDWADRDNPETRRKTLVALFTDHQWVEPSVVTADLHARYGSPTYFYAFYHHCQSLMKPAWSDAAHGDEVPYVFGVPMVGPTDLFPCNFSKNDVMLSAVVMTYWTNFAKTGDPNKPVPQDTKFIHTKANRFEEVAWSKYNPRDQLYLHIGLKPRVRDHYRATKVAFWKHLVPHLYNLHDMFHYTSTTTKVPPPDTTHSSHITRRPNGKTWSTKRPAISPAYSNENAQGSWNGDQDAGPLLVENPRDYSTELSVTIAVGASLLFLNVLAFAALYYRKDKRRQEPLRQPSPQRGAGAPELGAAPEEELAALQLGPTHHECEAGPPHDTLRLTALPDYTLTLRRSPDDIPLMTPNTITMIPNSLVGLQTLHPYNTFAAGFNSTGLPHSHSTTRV

No constants are given. Whether binding was seen depends on the method and setting. Binding seen in cells or lysates may run through a third protein. Some results given as binding are weak or reduced against the parent protein; the word gives no strength.

This experiment has as its target Myc-Shank3-WT (UniProt Q9BYB0). As to the kind of experiment: co-IP; HEK293 cells co-transfected with HA-NLGN3-WT or HA-NLGN4X-WT and Myc-Shank3-WT; which protein was precipitated is not told.

“HA-tagged wildtype neuroligin-4X (from UniProt Q8N0W4 42-816)”: the binding result is recorded as “binds”.

For the substance “HA-tagged wildtype neuroligin-3 (from UniProt Q9NZ94 38-848)”, the binding entry is “binds”.
